These are yes or no findings as the source states them, for the method shown. Binding seen in cells or lysates may run through a third protein. A yes stands for co-enrichment or nearness to the bait. Other partners may have been found.
Target: α‐catenin tagged with the biotin ligase BirA at the N-terminus (human) (UniProt P35221)
Experiment: proximity labelling; BioID in HLF cells with inducible BirA-α-catenin (1 µg/ml doxycycline 48 h, 50 µM biotin 24 h); biotinylated proteins collected on streptavidin magnetic beads and identified by mass spectrometry; empty BirA vector as control

Chains of the proteins cited; added tags and fusions are not shown.
UniProt P35221: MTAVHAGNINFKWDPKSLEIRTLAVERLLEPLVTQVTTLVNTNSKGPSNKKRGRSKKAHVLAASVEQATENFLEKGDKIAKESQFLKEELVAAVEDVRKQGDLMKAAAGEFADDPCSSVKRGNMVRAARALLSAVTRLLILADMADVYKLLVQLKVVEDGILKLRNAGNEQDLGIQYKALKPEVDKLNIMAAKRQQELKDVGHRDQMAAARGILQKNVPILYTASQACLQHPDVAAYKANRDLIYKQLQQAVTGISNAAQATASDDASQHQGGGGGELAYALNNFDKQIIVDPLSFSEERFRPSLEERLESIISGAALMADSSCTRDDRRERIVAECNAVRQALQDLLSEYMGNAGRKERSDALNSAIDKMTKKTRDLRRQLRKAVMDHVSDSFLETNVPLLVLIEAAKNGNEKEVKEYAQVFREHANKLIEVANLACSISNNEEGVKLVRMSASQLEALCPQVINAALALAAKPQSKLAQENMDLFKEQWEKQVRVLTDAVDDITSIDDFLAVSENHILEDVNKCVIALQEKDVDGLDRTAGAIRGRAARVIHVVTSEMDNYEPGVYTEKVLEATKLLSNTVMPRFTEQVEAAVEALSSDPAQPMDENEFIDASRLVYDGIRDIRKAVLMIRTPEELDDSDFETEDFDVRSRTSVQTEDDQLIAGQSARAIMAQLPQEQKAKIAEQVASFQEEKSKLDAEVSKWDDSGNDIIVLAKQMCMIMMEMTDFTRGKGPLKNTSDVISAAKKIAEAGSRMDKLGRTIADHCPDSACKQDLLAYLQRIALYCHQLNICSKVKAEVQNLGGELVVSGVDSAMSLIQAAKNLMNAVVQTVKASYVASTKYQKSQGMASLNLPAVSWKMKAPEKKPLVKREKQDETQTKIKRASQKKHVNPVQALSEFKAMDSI
UniProt Q14160: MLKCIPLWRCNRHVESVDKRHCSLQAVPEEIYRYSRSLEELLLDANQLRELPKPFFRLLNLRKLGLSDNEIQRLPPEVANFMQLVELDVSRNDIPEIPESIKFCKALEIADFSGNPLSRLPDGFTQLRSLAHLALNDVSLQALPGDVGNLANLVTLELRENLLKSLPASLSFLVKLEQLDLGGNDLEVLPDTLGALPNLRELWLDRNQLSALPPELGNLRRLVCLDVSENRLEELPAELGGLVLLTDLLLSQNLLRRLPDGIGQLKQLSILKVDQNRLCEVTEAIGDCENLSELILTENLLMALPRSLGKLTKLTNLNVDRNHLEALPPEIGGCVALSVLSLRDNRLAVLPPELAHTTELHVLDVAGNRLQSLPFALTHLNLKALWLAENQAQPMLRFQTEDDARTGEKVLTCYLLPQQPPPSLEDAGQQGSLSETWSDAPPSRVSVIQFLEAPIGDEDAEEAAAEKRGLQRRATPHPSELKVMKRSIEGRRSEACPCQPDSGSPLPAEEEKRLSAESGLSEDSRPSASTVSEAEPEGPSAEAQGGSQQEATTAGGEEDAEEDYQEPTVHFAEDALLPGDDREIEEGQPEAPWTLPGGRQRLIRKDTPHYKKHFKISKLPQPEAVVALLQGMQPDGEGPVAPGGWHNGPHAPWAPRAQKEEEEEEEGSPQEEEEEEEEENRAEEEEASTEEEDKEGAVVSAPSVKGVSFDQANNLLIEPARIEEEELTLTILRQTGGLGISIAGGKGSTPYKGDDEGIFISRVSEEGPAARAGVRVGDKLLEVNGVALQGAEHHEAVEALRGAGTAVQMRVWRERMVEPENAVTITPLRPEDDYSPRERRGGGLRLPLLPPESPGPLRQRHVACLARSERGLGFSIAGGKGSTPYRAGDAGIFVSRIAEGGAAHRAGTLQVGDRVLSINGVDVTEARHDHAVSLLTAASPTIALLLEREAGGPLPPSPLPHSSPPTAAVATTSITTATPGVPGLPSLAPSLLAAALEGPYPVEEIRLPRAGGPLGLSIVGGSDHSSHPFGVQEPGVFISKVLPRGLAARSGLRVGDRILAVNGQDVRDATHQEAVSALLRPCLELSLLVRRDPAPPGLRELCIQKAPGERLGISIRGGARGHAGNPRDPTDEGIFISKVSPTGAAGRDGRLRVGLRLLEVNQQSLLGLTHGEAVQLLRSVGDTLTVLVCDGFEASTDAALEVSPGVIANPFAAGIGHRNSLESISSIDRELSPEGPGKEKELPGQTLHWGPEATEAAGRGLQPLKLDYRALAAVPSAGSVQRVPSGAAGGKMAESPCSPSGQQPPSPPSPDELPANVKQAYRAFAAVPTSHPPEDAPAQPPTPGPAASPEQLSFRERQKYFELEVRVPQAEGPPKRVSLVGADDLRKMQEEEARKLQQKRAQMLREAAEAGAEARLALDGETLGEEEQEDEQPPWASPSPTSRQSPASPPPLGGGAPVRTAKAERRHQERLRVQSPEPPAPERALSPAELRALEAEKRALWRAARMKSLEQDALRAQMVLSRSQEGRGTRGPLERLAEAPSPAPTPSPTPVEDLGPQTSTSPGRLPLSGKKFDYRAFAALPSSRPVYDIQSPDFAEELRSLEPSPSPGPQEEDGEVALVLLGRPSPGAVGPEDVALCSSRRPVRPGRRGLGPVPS
UniProt O14639: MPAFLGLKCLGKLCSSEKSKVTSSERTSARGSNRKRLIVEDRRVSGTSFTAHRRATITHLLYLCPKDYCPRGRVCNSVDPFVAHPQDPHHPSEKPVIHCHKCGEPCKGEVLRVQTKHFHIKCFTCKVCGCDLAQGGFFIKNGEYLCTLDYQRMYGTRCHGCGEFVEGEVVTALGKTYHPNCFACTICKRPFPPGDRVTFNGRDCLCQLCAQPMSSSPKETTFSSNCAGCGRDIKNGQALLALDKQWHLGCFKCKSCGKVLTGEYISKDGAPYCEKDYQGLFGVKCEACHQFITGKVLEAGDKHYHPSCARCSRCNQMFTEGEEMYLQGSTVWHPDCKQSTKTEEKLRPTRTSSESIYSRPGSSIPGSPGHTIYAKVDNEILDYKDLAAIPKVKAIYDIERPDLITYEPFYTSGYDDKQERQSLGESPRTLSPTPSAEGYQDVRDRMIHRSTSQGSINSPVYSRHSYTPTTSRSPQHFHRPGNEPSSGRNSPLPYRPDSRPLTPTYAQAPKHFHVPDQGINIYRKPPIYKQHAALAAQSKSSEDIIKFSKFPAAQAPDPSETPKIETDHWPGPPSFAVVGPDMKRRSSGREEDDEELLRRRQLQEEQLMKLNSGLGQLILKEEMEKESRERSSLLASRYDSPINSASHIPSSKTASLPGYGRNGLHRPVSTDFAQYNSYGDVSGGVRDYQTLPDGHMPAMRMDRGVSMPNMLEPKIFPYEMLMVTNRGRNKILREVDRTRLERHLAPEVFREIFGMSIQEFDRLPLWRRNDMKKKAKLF
UniProt Q9NR12: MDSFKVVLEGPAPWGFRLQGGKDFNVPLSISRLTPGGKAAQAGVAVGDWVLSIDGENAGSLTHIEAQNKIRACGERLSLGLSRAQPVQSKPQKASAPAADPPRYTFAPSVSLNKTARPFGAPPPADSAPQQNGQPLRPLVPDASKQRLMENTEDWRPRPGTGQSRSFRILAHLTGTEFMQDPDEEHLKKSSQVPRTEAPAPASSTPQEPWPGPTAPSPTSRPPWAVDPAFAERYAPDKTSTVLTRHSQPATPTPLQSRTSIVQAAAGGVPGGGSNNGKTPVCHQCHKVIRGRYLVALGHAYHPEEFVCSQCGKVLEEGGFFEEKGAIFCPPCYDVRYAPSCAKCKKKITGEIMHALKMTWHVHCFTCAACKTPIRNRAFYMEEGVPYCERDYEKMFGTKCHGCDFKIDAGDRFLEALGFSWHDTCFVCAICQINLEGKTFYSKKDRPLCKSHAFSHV

In the case of Scribble (from UniProt Q14160 1-1655), the binding is reported as “binds”.

limatin (from UniProt O14639 1-778) was tested, and the binding was “binds”.

In the case of “PDZ and LIM domain 7 (from UniProt Q9NR12 1-457)”, the binding is reported as “binds”.

B1: plakoglobin (protein, UniProt P14923 1-745)
chain: MEVMNLMEQPIKVTEWQQTYTYDSGIHSGANTCVPSVSSKGIMEEDEACGRQYTLKKTTTYTQGVPPSQGDLEYQMSTTARAKRVREAMCPGVSGEDSSLLLATQVEGQATNLQRLAEPSQLLKSAIVHLINYQDDAELATRALPELTKLLNDEDPVVVTKAAMIVNQLSKKEASRRALMGSPQLVAAVVRTMQNTSDLDTARCTTSILHNLSHHREGLLAIFKSGGIPALVRMLSSPVESVLFYAITTLHNLLLYQEGAKMAVRLADGLQKMVPLLNKNNPKFLAITTDCLQLLAYGNQESKLIILANGGPQALVQIMRNYSYEKLLWTTSRVLKVLSVCPSNKPAIVEAGGMQALGKHLTSNSPRLVQNCLWTLRNLSDVATKQEGLESVLKILVNQLSVDDVNVLTCATGTLSNLTCNNSKNKTLVTQNSGVEALIHAILRAGDKDDITEPAVCALRHLTSRHPEAEMAQNSVRLNYGIPAIVKLLNQPNQWPLVKATIGLIRNLALCPANHAPLQEAAVIPRLVQLLVKAHQDAQRHVAAGTQQPYTDGVRMEEIVEGCTGALHILARDPMNRMEIFRLNTIPLFVQLLYSSVENIQRVAAGVLCELAQDKEAADAIDAEGASAPLMELLHSRNEGTATYAAAVLFRISEDKNPDYRKRVSVELTNSLFKHDPAAWEAAQSMIPINEPYGDDMDATYRPMYSSDVPLDPLEMHMDMDGDYPIDTYSDGLRPPYPTADHMLA
With B1 the binding was “binds”.

B2: δ-catenin (protein, UniProt O60716 1-968)
chain: MDDSEVESTASILASVKEQEAQFEKLTRALEEERRHVSAQLERVRVSPQDANPLMANGTLTRRHQNGRFVGDADLERQKFSDLKLNGPQDHSHLLYSTIPRMQEPGQIVETYTEEDPEGAMSVVSVETSDDGTTRRTETTVKKVVKTVTTRTVQPVAMGPDGLPVDASSVSNNYIQTLGRDFRKNGNGGPGPYVGQAGTATLPRNFHYPPDGYSRHYEDGYPGGSDNYGSLSRVTRIEERYRPSMEGYRAPSRQDVYGPQPQVRVGGSSVDLHRFHPEPYGLEDDQRSMGYDDLDYGMMSDYGTARRTGTPSDPRRRLRSYEDMIGEEVPSDQYYWAPLAQHERGSLASLDSLRKGGPPPPNWRQPELPEVIAMLGFRLDAVKSNAAAYLQHLCYRNDKVKTDVRKLKGIPVLVGLLDHPKKEVHLGACGALKNISFGRDQDNKIAIKNCDGVPALVRLLRKARDMDLTEVITGTLWNLSSHDSIKMEIVDHALHALTDEVIIPHSGWEREPNEDCKPRHIEWESVLTNTAGCLRNVSSERSEARRKLRECDGLVDALIFIVQAEIGQKDSDSKLVENCVCLLRNLSYQVHREIPQAERYQEAAPNVANNTGPHAASCFGAKKGKDEWFSRGKKPIEDPANDTVDFPKRTSPARGYELLFQPEVVRIYISLLKESKTPAILEASAGAIQNLCAGRWTYGRYIRSALRQEKALSAIADLLTNEHERVVKAASGALRNLAVDARNKELIGKHAIPNLVKNLPGGQQNSSWNFSEDTVISILNTINEVIAENLEAAKKLRETQGIEKLVLINKSGNRSEKEVRAAALVLQTIWGYKELRKPLEKEGWKKSDFQVNLNNASRSQSSHSYDDSTLPLIDRNQKSDKKPDREEIQMSNMGSNTKSLDNNYSTPNERGDHNRTLDRSGDLGDMEPLKGTTPLMQDEGQESLEEELDVLVLDDEGGQVSYPSMQKI
With B2 the binding was “binds”.

B3: calmin (protein, UniProt Q96JQ2 1-1002)
chain: MAAHEWDWFQREELIGQISDIRVQNLQVERENVQKRTFTRWINLHLEKCNPPLEVKDLFVDIQDGKILMALLEVLSGRNLLHEYKSSSHRIFRLNNIAKALKFLEDSNVKLVSIDAAEIADGNPSLVLGLIWNIILFFQIKELTGNLSRNSPSSSLSPGSGGTDSDSSFPPTPTAERSVAISVKDQRKAIKALLAWVQRKTRKYGVAVQDFAGSWRSGLAFLAVIKAIDPSLVDMKQALENSTRENLEKAFSIAQDALHIPRLLEPEDIMVDTPDEQSIMTYVAQFLERFPELEAEDIFDSDKEVPIESTFVRIKETPSEQESKVFVLTENGERTYTVNHETSHPPPSKVFVCDKPESMKEFRLDGVSSHALSDSSTEFMHQIIDQVLQGGPGKTSDISEPSPESSILSSRKENGRSNSLPIKKTVHFEADTYKDPFCSKNLSLCFEGSPRVAKESLRQDGHVLAVEVAEEKEQKQESSKIPESSSDKVAGDIFLVEGTNNNSQSSSCNGALESTARHDEESHSLSPPGENTVMADSFQIKVNLMTVEALEEGDYFEAIPLKASKFNSDLIDFASTSQAFNKVPSPHETKPDEDAEAFENHAEKLGKRSIKSAHKKKDSPEPQVKMDKHEPHQDSGEEAEGCPSAPEETPVDKKPEVHEKAKRKSTRPHYEEEGEDDDLQGVGEELSSSPPSSCVSLETLGSHSEEGLDFKPSPPLSKVSVIPHDLFYFPHYEVPLAAVLEAYVEDPEDLKNEEMDLEEPEGYMPDLDSREEEADGSQSSSSSSVPGESLPSASDQVLYLSRGGVGTTPASEPAPLAPHEDHQQRETKENDPMDSHQSQESPNLENIANPLEENVTKESISSKKKEKRKHVDHVESSLFVAPGSVQSSDDLEEDSSDYSIPSRTSHSDSSIYLRRHTHRSSESDHFSYVQLRNAADLDDRRNRILTRKANSSGEAMSLGSHSPQSDSLTQLVQQPDMMYFILFLWLLVYCLLLFPQLDVSRL
In the case of B3, the binding is reported as “binds”.

B4: centrosomal protein 55 (protein, UniProt Q53EZ4 1-464)
chain: MSSRSTKDLIKSKWGSKPSNSKSETTLEKLKGEIAHLKTSVDEITSGKGKLTDKERHRLLEKIRVLEAEKEKNAYQLTEKDKEIQRLRDQLKARYSTTTLLEQLEETTREGERREQVLKALSEEKDVLKQQLSAATSRIAELESKTNTLRLSQTVAPNCFNSSINNIHEMEIQLKDALEKNQQWLVYDQQREVYVKGLLAKIFELEKKTETAAHSLPQQTKKPESEGYLQEEKQKCYNDLLASAKKDLEVERQTITQLSFELSEFRRKYEETQKEVHNLNQLLYSQRRADVQHLEDDRHKTEKIQKLREENDIARGKLEEEKKRSEELLSQVQFLYTSLLKQQEEQTRVALLEQQMQACTLDFENEKLDRQHVQHQLHVILKELRKARNQITQLESLKQLHEFAITEPLVTFQGETENREKVAASPKSPTAALNESLVECPKCNIQYPATEHRDLLVHVEYCSK
For B4, the binding was “binds”.

Source: article PMC10304383
